Some of the results follow.
Each sequence was assayed against T1, OsSMF1 (Oryza sativa, UniProt Q6ZLB0 1-436) (assay: protein-binding microarray (RPBM); PBS, 2% BSA, 51.3 ng/ul salmon testes DNA, 50 uM zinc acetate, 200 nM TF, 25 C, 1 h; high values mean tight binding). Conditions: protein: recombinant; tags: N-terminal polyhistidine and DsRed monomer fusion (pET32a); chain copies: 2; label: CyDye5-dUTP incorporated in the synthesized complementary strand; 3' TTTTT single-stranded linker to array surface; dsDNA, one strand shown.
T1 sequence: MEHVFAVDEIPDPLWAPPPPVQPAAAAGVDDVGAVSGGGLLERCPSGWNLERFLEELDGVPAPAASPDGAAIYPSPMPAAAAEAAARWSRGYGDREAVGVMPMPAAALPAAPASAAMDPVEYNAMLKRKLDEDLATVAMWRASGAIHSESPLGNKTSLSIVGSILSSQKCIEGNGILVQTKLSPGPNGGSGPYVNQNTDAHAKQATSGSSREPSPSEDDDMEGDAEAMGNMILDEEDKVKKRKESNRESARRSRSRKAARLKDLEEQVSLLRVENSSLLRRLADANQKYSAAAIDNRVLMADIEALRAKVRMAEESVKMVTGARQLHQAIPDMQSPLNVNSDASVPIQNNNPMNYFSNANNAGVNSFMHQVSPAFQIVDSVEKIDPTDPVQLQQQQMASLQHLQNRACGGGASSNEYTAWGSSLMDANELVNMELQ
In short: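 A custom Agilent array was converted to double-stranded form by primer extension with Cy5-dUTP and blocked with 2% BSA. Protein at 200 nM in PBS with 2% BSA, salmon testes DNA and 50 µM zinc acetate was applied for 1 h at 25 °C, followed by washing. The proteins were polyhistidine–DsRed N-terminal fusions of transcription factors, expressed in E. coli BL21-CodonPlus and Ni–NTA-purified. The binding signal is per-feature fluorescence intensity (arbitrary units) from an Axon 4000B scanner.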

| Sequence | binding signal |
| --- | --- |
| CCATCTAAAACAGTTCGCGTGCAGTCCAGCTCCAGCCCAACGGAGTCACCTAGTGCAG | 3190 fluorescence intensity (a.u.) |
| TGTCGCCACTAGCCGCCGCCAACCACCAACCCGTCATCGACGGAGTCACCTAGTGCAG | 3230 fluorescence intensity (a.u.) |
| ATAAAATAATGCGACCGGTGTCCTACGGCTAATTACACGTCGGAGTCACCTAGTGCAG | 3240 fluorescence intensity (a.u.) |
| CGGTCAGGGTCGCGTGTCAGCCACACCATTGGGATTGGCGCGGAGTCACCTAGTGCAG | 3370 fluorescence intensity (a.u.) |
| ACCGAACCACACAACAACCGTCGCGGAACCACCACATCATCGGAGTCACCTAGTGCAG | 4910 fluorescence intensity (a.u.) |
| GGTTGAGGCAATGACAATGGCGCAGCAGCTTTCTCTGAGGCGGAGTCACCTAGTGCAG | 3800 fluorescence intensity (a.u.) |
| TTGATCTTTAATTAGTACATGAAAGACACGTAGATTTTGACGGAGTCACCTAGTGCAG | 3930 fluorescence intensity (a.u.) |
| CGCCGCTCGATCCGCCTTGGCGCTTGCCCACGCGTCCACGCGGAGTCACCTAGTGCAG | 5990 fluorescence intensity (a.u.) |
| GTGTAACACACCATTCCCTGACGTCGCAGCAATGGACCAGCGGAGTCACCTAGTGCAG | 3780 fluorescence intensity (a.u.) |
| GATGGTGACTTTTCCACAACTGCATTCAGGATGCTAGGCTCGGAGTCACCTAGTGCAG | 3350 fluorescence intensity (a.u.) |
| ATTTAATAAAACTTATTTGGTGTTGTAAATGTTGCTAAATCGGAGTCACCTAGTGCAG | 26700 fluorescence intensity (a.u.) |
| GTGAAATCTCCTCTTGACCCCGCGATGACTACGCCGCACTCGGAGTCACCTAGTGCAG | 3230 fluorescence intensity (a.u.) |
| CCGGCCACCGCACGCTGACGTGTGGGGCCCACGCGGCCACCGGAGTCACCTAGTGCAG | 13600 fluorescence intensity (a.u.) |
| CTATATGTCTGTATATGACTTCGCAATCAGCCAATCAATTCGGAGTCACCTAGTGCAG | 3260 fluorescence intensity (a.u.) |
| AGAAAAGGACATGCACATACTACTCTCTGACTCAGCAAACCGGAGTCACCTAGTGCAG | 12400 fluorescence intensity (a.u.) |
| TCACTCGGCCTACATGGGCTGACGCTGCGGCCTGCTTCGGCGGAGTCACCTAGTGCAG | 4910 fluorescence intensity (a.u.) |
| TAGGGTTGCGGGGCTGACGAAGAACACGCCACCTTCCGCACGGAGTCACCTAGTGCAG | 4520 fluorescence intensity (a.u.) |
| CTGGAGGAAATCAGAGTTGGTCCGGCTCAAGTTCCACGAGCGGAGTCACCTAGTGCAG | 5240 fluorescence intensity (a.u.) |
| CCTGAACTTGTTCAGAGGGAGAACAAGTTGACATAGTATACGGAGTCACCTAGTGCAG | 11200 fluorescence intensity (a.u.) |
| CACTTTACAACAGTAAACAATCACAACTTCCGTAAGATCTCGGAGTCACCTAGTGCAG | 3150 fluorescence intensity (a.u.) |
| GCTGTCCTGCTCGTCGGCCTCCACGCGCGCTCATCGGCCTCGGAGTCACCTAGTGCAG | 3240 fluorescence intensity (a.u.) |
| CGGGTCACCCACGCAACGCCGCCTCACGCCGCCGCACCATCGGAGTCACCTAGTGCAG | 5280 fluorescence intensity (a.u.) |
| CACTGACACGAACCGCCATAGCGGAGCCACCTCCACGTCGCGGAGTCACCTAGTGCAG | 3730 fluorescence intensity (a.u.) |
| CTCTCGAGGATGAAAACTCTTTCCCGGATGCACGCCAATCCGGAGTCACCTAGTGCAG | 3450 fluorescence intensity (a.u.) |
| ATTGACGCGCCTCGGTATTACCTCACTAGCTGCGTCATTGCGGAGTCACCTAGTGCAG | 6460 fluorescence intensity (a.u.) |
| GCTGCAGACACGATTAGGAGATCGTGCATTGCCACCATCGCGGAGTCACCTAGTGCAG | 3290 fluorescence intensity (a.u.) |
| ATCTCGGAAGAAGGTTTTATTGCCCTGTACAAGCTTGCAACGGAGTCACCTAGTGCAG | 3790 fluorescence intensity (a.u.) |

Fetched one by one from above, 2 records:

| Sequence | binding signal |
| --- | --- |
| CGGTCAGGGTCGCGTGTCAGCCACACCATTGGGATTGGCGCGGAGTCACCTAGTGCAG | 3370 fluorescence intensity (a.u.) |
| TTGATCTTTAATTAGTACATGAAAGACACGTAGATTTTGACGGAGTCACCTAGTGCAG | 3930 fluorescence intensity (a.u.) |

Next records follow.

| Sequence | binding signal |
| --- | --- |
| TAAGCGCAGGGTATCGACGCGATGGACACTAGGCATGGCCCGGAGTCACCTAGTGCAG | 3630 fluorescence intensity (a.u.) |
| TGCACACTATCATTACTATACACGTATATATTTCATCAGCCGGAGTCACCTAGTGCAG | 3700 fluorescence intensity (a.u.) |
| CTGAGCTGTTGTCATGCGTAGCAATGTGTTTCTCCATACTCGGAGTCACCTAGTGCAG | 3140 fluorescence intensity (a.u.) |
| TTGCCAGTTTGTGCTGGAGTACACATCATTGCTGATTCAACGGAGTCACCTAGTGCAG | 7990 fluorescence intensity (a.u.) |
| TGTATGTATCATATGCAGATCGATGGACACGTATTAAGCTCGGAGTCACCTAGTGCAG | 5490 fluorescence intensity (a.u.) |
| CGCGCCCACGCCAACGCCACCACGACCCGTTCCGTCTGTTCGGAGTCACCTAGTGCAG | 3470 fluorescence intensity (a.u.) |
| CATCTTCATCAGTTTCGCCTATGGACGTGTCATGTTATCTCGGAGTCACCTAGTGCAG | 4750 fluorescence intensity (a.u.) |
| TTGGGTTCAGTATGGACCGGGTCCACGCCTCACCTCGCCTCGGAGTCACCTAGTGCAG | 3160 fluorescence intensity (a.u.) |
| TGATTTACTGCATGTGAGCTTGTTCGAGAGAGCATTTGCCCGGAGTCACCTAGTGCAG | 21600 fluorescence intensity (a.u.) |
| AATCCAATCTTGACTTGGCAGTTGTGTTCGCCACCGAACGCGGAGTCACCTAGTGCAG | 4240 fluorescence intensity (a.u.) |
| TATTCCAGCATTGTCTTAAACCGTAAATAATACAAATATACGGAGTCACCTAGTGCAG | 28500 fluorescence intensity (a.u.) |
| GCCCTTGCCGCCACGCCACCCGCCCGCCGCTACCGCCGCTCGGAGTCACCTAGTGCAG | 7150 fluorescence intensity (a.u.) |
| GTTTGAGGAAGAAAGCACGTCGTTTTCCACGTGCACGCTTCGGAGTCACCTAGTGCAG | 6500 fluorescence intensity (a.u.) |
| CAGGCGCCACTACTGATGCGTCACTGTCAGTGTGGGCCCCCGGAGTCACCTAGTGCAG | 19400 fluorescence intensity (a.u.) |
| GGGGTGGAAGTCCGTCTACTGCGTCACCCACCGCGACGCCCGGAGTCACCTAGTGCAG | 4030 fluorescence intensity (a.u.) |
| GTCAGTCCTTGTCACGTTTGCTACGGCCATCCCGTCCAATCGGAGTCACCTAGTGCAG | 4200 fluorescence intensity (a.u.) |
| TGTTACGCGTCTCCACGTGCCTCCTCTCCCTCCACCGGACCGGAGTCACCTAGTGCAG | 6880 fluorescence intensity (a.u.) |
| CTTAGTGTCGATCAACCTCCTTAGCTCGATGATGCAGCGTCGGAGTCACCTAGTGCAG | 3350 fluorescence intensity (a.u.) |
| TACTTGAAATTCTTGTCATTGACATGTAGGGCAGATTGCACGGAGTCACCTAGTGCAG | 3630 fluorescence intensity (a.u.) |
| AGATGGCTTGTCGTGGCTGCTGTGGCGCATGTACCCGGATCGGAGTCACCTAGTGCAG | 3390 fluorescence intensity (a.u.) |
| ACGTAATGTGTGTATGACAGGTAAGATTAGGTATTAATAGCGGAGTCACCTAGTGCAG | 4950 fluorescence intensity (a.u.) |
| GATAGTTCAGTGGCAAAGGATACGTGGTTTCAACCCCGATCGGAGTCACCTAGTGCAG | 4380 fluorescence intensity (a.u.) |
| TGCTACTCGTCACCAGATGTTTCATAGGTCCAACTAGGGGCGGAGTCACCTAGTGCAG | 3370 fluorescence intensity (a.u.) |
| TCCTAATTTCACACCGTCTCTTCCTTGTAACCATCTGAAACGGAGTCACCTAGTGCAG | 3500 fluorescence intensity (a.u.) |
| GCAAATTGCCACGTAAGCGCCACGTCAGATCGAGACCGAGCGGAGTCACCTAGTGCAG | 28900 fluorescence intensity (a.u.) |
| AGCACTTAACGGAGGGTTGCTGGCGAAACCTTAACGGCAACGGAGTCACCTAGTGCAG | 7000 fluorescence intensity (a.u.) |
| AGGGAGAATTGATTATCAGCATGGCAATGGAGGAACATGCCGGAGTCACCTAGTGCAG | 3580 fluorescence intensity (a.u.) |

Part of the list above in a different format.
Sequence | binding signal
TGCACACTATCATTACTATACACGTATATATTTCATCAGCCGGAGTCACCTAGTGCAG | 3700 fluorescence intensity (a.u.)
CTGAGCTGTTGTCATGCGTAGCAATGTGTTTCTCCATACTCGGAGTCACCTAGTGCAG | 3140 fluorescence intensity (a.u.)

Reference: publication PMC7819943, “Rice protein-binding microarrays: a tool to detect cis-acting elements near promoter regions in rice”
